# Test results as given in patent US9132176B2, “RAB6KIFL/KIF20A epitope peptide and vaccines containing the same” (ONCOTHERAPY SCIENCE, INC., priority 2008, dated 2015).
# At least one peptide structure holds a part that was inferred or is arguable (an end, a ring closure or a residue). Some compounds share one wording; it may come from a single statement. Where a SMILES comes first, the peptide text is derived from it.
# Tested on: CD4− spleen cells isolated from HLA-A2.1 (HHD) Tgm
# Assay: Induction of RAB6KIFL-reactive mouse CTLs in HLA-A2.1 (HHD) Tgm, IFN-gamma ELISPOT
# Type: cell-based
# Settings: CD4− spleen cells of immunized HLA-A2.1 (HHD) Tgm stimulated with each peptide
row,Structure (SMILES),peptide-specific IFN-gamma production in ELISPOT assay
1,"CC(C)C[C@H](NC(=O)[C@@H]1CCCN1C(=O)[C@H](C)NC(=O)[C@@H](NC(=O)[C@H](CC(=O)O)NC(=O)[C@@H]1CCCN1C(=O)[C@H](CCC(N)=O)NC(=O)[C@H](C)N)[C@@H](C)O)C(=O)N1CCC[C@H]1C(=O)N[C@H](C(=O)O)C(C)C [RAB6KIFL-A2-10-284, AQPDTAPLPV] (H-AQPDTAPLPV-OH; N-terminus and C-terminus assumed)",produced a significant amount of IFN-gamma in a peptide-specific manner
2,"CC[C@H](C)[C@H](NC(=O)[C@@H](N)CS)C(=O)N[C@@H](C)C(=O)N[C@@H](CCC(=O)O)C(=O)N[C@@H](CCC(N)=O)C(=O)N[C@@H](Cc1ccc(O)cc1)C(=O)N[C@@H](Cc1c[nH]cn1)C(=O)N[C@H](C(=O)N[C@H](C(=O)O)C(C)C)[C@@H](C)O [RAB6KIFL-A2-9-809, CIAEQYHTV] (H-CIAEQYHTV-OH; N-terminus and C-terminus assumed)",produced a significant amount of IFN-gamma in a peptide-specific manner
3,"CC(C)C[C@H](NC(=O)[C@@H](N)CC(C)C)C(=O)N[C@@H](CO)C(=O)N[C@@H](CC(=O)O)C(=O)N[C@@H](CC(=O)O)C(=O)N[C@@H](CC(=O)O)C(=O)N[C@H](C(=O)N[C@H](C(=O)N[C@H](C(=O)O)C(C)C)C(C)C)C(C)C [RAB6KIFL-A2-9-12, LLSDDDVVV] (H-LLSDDDVVV-OH; N-terminus and C-terminus assumed)",produced a significant amount of IFN-gamma in a peptide-specific manner
